The values are deposited in ChEMBL (CHEMBL3988442, “University of Dundee, Small-Polar-MMV Screening Library” (2021)).

Sequences of proteins named here, by UniProt entry; tags and fusion partners are left off.
UniProt E9BF75, entry or part of it: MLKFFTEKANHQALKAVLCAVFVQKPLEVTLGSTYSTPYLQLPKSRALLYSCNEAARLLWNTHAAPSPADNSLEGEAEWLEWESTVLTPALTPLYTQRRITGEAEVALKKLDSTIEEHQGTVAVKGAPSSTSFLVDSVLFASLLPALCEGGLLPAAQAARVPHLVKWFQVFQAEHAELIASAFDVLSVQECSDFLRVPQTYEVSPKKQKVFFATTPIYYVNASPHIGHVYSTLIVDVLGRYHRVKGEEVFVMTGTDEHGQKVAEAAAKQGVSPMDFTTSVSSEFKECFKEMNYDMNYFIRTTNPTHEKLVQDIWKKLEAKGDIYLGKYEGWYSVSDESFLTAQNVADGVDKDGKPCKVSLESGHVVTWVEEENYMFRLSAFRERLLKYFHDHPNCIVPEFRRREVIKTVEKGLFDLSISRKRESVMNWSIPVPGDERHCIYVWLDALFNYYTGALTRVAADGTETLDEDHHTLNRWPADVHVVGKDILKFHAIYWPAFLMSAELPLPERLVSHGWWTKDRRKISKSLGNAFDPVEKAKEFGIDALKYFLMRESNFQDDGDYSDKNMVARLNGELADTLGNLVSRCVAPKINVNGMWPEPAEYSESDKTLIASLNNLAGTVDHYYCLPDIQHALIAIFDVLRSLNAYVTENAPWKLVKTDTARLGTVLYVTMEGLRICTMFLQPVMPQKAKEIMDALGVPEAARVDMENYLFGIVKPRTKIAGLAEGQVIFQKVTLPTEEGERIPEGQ

LdMetRS: 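Primary screen of methionyl-tRNA synthetase; the read-out is not stated. Target: Methionyl-tRNA synthetase (putative), Leishmania donovani (UniProt E9BF75). The test concentration is not given. Values are per cent inhibition. Of about 68,000 compounds tested this way, about 24 (0.035%) reached 50% or more in at least one test.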
Mtb heat-shock: 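Assay on Mycobacterium tuberculosis, filed only as a heat shock assay from Cornell; the read-out is not stated. The concentration is filed as 10 mM, unlikely as a test dose, so the dose is not known. The record gives no direction; compounds that gave an IC50 in retests scored well above the rest, so higher reads as stronger inhibition. About 69,000 compounds were tested under these conditions; 1.4% (about 930) showed 50% or more at least once.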

All values are in %.
The record does not define 0% and 100%; most values in the screen are far below 50% and negative numbers occur (in some assays of this library far below -100).
This is an unselected part of the compounds tested.

* Cc1ccc(NC(=O)C2CSCN2C(=O)c2cccnc2)c(C)c1 (configuration not stated) | LdMetRS: 1.746%; Mtb heat-shock: -5.329%
* CN1CCN(Cc2cccc(NCc3ncc[nH]3)c2)CC1 | LdMetRS: -1.381%; Mtb heat-shock: -21.33%
* O=C(NCc1nnc2n1C(C(=O)NC1CC1)CC2)c1ccc(Cl)cc1Cl (configuration not stated) | LdMetRS: 8.571%; Mtb heat-shock: 6.487%
* COc1ccccc1OCC(=O)Nc1ncccc1Cl | LdMetRS: 8.85%; Mtb heat-shock: -7.492%
* O=C1NC(c2ccccc2)=N[C@@]12CC[C@@H]1CN(CC3CCOCC3)C[C@@H]12 | LdMetRS: 2.929%
* NCc1cnn(-c2ccccc2C(=O)N2CCCC(C(N)=O)C2)c1 (configuration not stated) | LdMetRS: 9.974%; Mtb heat-shock: -18.64%
* CSc1nccn1-c1cccc(C(=O)NCC2CC2)c1 | LdMetRS: 14.17%; Mtb heat-shock: 17.37%
* c1cc(CO[C@@H]2CC[C@H]3[C@H]2OCCN3Cc2ccoc2)ccn1 | LdMetRS: 11.78%
* [H][C@@]12COC[C@]1([H])[C@H](OCc1csc(C)n1)CN2Cc1ccc(F)cc1 | Mtb heat-shock: -32.5%
* COCC(=O)N1CCC(Oc2cccc(C)c2)CC1 | LdMetRS: 3.474%; Mtb heat-shock: 18.92%
* O=C1CCCN1CC1CN(C(=O)N2CCOCC2)Cc2nccn2C1 (configuration not stated) | LdMetRS: 4.255%; Mtb heat-shock: 5.272%
* COC1CN(C(=O)OCC(C)C)CCC(=O)N(C)c2ccccc21 (configuration not stated) | LdMetRS: 12.33%; Mtb heat-shock: 53.04%
* c1ccc(CN2CCc3ncnc(C4CC4)c3CC2)nc1 | LdMetRS: 18.53%
* CC(C)CN1CCC2(CCN(CC3CC3)CC2)C1=O | LdMetRS: 14.19%
* OCCN1CC2(CCN(CC3CC3)CC2)c2ccccc21 | LdMetRS: 13.41%
* NC(=O)COc1cccc(C(=O)NCc2ccc(Cl)s2)c1 | LdMetRS: 3.553%; Mtb heat-shock: 7.914%
* COc1cccc(S(=O)(=O)NC(=O)C2CC(c3ccccc3)=NO2)c1 (configuration not stated) | LdMetRS: 13.04%; Mtb heat-shock: 7.546%
* COCCN(Cc1ccoc1)C(=O)c1ccc(Cl)s1 | LdMetRS: 13.91%; Mtb heat-shock: -4.105%
* CCc1cccc(N2CCC(NC(=O)c3ccco3)CC2)c1 | LdMetRS: 16.33%; Mtb heat-shock: 14.37%
* Cc1ccc(CNC(=O)CN2CCN(CC(O)C3CC3)CC2)cc1 (configuration not stated) | LdMetRS: 14.71%
* CC(C)C(=O)NC1CCN(Cc2cccc3c2OCCO3)CC1 | LdMetRS: 11.81%; Mtb heat-shock: 1.956%
* O=C(Cn1cc(C2CC2)nn1)N(Cc1ccco1)CC1CCCO1 (configuration not stated) | LdMetRS: 13.71%; Mtb heat-shock: -21.69%
* CCC(C)[C@H](N)c1nnc(SCC(=O)Nc2ccc(C)cc2C)o1.Cl (some centres not stated) | Mtb heat-shock: -14.93%
* Cc1cc(C)nc(Nc2cccc(C3CCCN(CC4CC4)C3)n2)n1 (configuration not stated) | LdMetRS: 19.79%; Mtb heat-shock: -13.03%
* CN(C)C(=O)Cn1c(C2CC2)c(CN2CCSCC2)c2cccnc21 | LdMetRS: 18.09%; Mtb heat-shock: 2.917%
* COc1ncnc2c1CCN(Cc1cccc(C)n1)CC2 | LdMetRS: 15.95%; Mtb heat-shock: -6.438%
* CC1(C(=O)N2CCC(n3cc(C4(O)CCCC4)nn3)CC2)CCCCC1 | LdMetRS: 19.5%; Mtb heat-shock: -3.155%
* Cn1ccnc1CN1CCO[C@H]2C(CNC(=O)c3ccco3)CC[C@@H]21 (some centres not stated) | LdMetRS: 12.2%
* Cc1ccc(Oc2c(F)cccc2OC[C@@H](N)CC(C)C)cc1 | LdMetRS: 28.89%; Mtb heat-shock: 104.6%
* CCOC1COC2(CCN(Cc3ccc4c(c3)OCO4)CC2)C1 (configuration not stated) | LdMetRS: 15.82%; Mtb heat-shock: -21.14%
* O=C(Nc1ccc(S(=O)(=O)Nc2c(F)cccc2F)cc1)N1CCCC1 | LdMetRS: -4.668%; Mtb heat-shock: 8.131%
* c1cc(CNCc2cccc3c2OCCCO3)cc(Cn2cncn2)c1 | LdMetRS: 11.78%
* O=C(O)C(F)(F)F.[H][C@@]12COC[C@H](C(=O)NCc3ccco3)[C@]1([H])CN(Cc1ccoc1)C2 | Mtb heat-shock: -31.06%
* CCC1CN(C(=O)c2ccc(=O)[nH]c2)CCC(=O)N1Cc1ccccc1 (configuration not stated) | LdMetRS: 5.31%; Mtb heat-shock: 106.1%
* N#CCc1ccc(NC(=O)Cn2cc(I)cn2)cc1 | LdMetRS: 8.746%; Mtb heat-shock: 19.42%
* COCCCC(=O)Nc1cc(Cl)c(Cl)cn1 | LdMetRS: 7.971%; Mtb heat-shock: 4.886%
* c1cc(CN2CCOC[C@H]2c2nc(-c3ccncc3)c[nH]2)ccn1 | LdMetRS: 11.28%; Mtb heat-shock: -56.8%

The first 2 entries again:

| structure | LdMetRS | Mtb heat-shock |
|---|---|---|
| `Cc1ccc(NC(=O)C2CSCN2C(=O)c2cccnc2)c(C)c1` (configuration not stated) | 1.746% | -5.329% |
| `CN1CCN(Cc2cccc(NCc3ncc[nH]3)c2)CC1` | -1.381% | -21.33% |